Measurements taken from PubChem BioAssay AID504834 (National Center for Advancing Translational Sciences (NCATS), 2011).
In all, about 320,000 compounds went through this assay and about 22,000 (6.9%) were called active. Inconclusive means that the source gave no clear call. Such entries were picked first, then a sample of the others. Calls follow the shape of the dose curve; as a rule, active = well fitted inhibition curve with a large enough effect; inconclusive = small, poorly fitted or top-dose-only effect, or another doubt; inactive = no such curve, though single readings can be large or run the other way. Potencies beside an inconclusive call are fits to weak or partial responses and may not hold up.

assay: Primary qHTS for delayed death inhibitors of the malarial parasite plastid, 96 hour incubation; details: P. falciparum luciferase reporter growth; series mostly up to 28.7 µM
In short: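 96 h incubation, 37 C, 5% CO2, of luciferase-reporter P. falciparum-infected RBCs (2% hematocrit, 0.05% parasitemia final) with test compounds; endpoint luminescence.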
Potency is read from the fitted curve at half-maximal effect.

SMILES | Potency
COc1cc(OC)c(OC)cc1CN1CCN(C(=O)CC(C)C)CC1 | inconclusive: 16.5 µM [inhibitor, single point]
CCCCn1c(=O)n(C)c(=O)c2c3c(sc21)COC(C)(C)C3 | inconclusive: 9.28 µM [inhibitor, partial curve, poor fit]
N=c1c2c(-c3ccccc3)c(-c3ccccc3)n(Cc3ccco3)c2ncn1CCCO | active: 13.1 µM
COC(=O)c1sc(=S)n(-c2cccc(Cl)c2)c1N | inconclusive: 13.1 µM [inhibitor, single point]
O=C(CCCCCN1C(=O)c2cccc3cccc(c23)C1=O)NCCCO | inconclusive: 18.5 µM [inhibitor, single point]
CCCCCCc1cc2cc(-c3nnc(-c4cc(OC)c(OC)c(OC)c4)o3)c(=O)oc2cc1O | inactive
CCC12C=CCN3CCC4(c5cc(Br)c(OC)cc5N(C)C4C(O)(C(=O)OC)C1OC(C)=O)C32 (configuration not stated) | inconclusive: 11.7 µM [inhibitor, single point]
c1ccc(CNc2nc(N3CCN(Cc4ccccc4)CC3)nc3ccccc23)cc1 | inconclusive: 2.94 µM [inhibitor, partial curve, poor fit]
CCCN(CCC)CCCNC(=O)Cn1cnc2sc(C)c(S(=O)(=O)N3CCCCC3)c2c1=O | inactive
COc1cccc(CN(C)C(=O)CSCC(=O)Nc2cc(C)on2)c1OC | inactive
O=c1oc2ccccc2c2oc3cc(O)c(O)cc3c12 | inactive
COc1cccc2c1OCC/C2=N\NC(=O)COc1ccc(C)cc1 | inconclusive: 2.94 µM [inhibitor, full curve]
CCOC(=O)C1(Cc2cccc(F)c2)CCN(Cc2c(C)nn(CC)c2C)CC1 | inactive
CC1=C(C(=O)OCCC(C)C)C(c2ccc3c(c2)OCO3)NC(=O)N1 (configuration not stated) | inconclusive: 3.29 µM [inhibitor, partial curve]
CC(C)CC(=O)Nc1ccc(C(=O)COC(=O)C2=COCCO2)cc1 | inactive
OCCC1CN(Cc2ccc3ncccc3c2)CCN1Cc1ccccc1 (configuration not stated) | inconclusive: 0.0928 µM [inhibitor, partial curve, poor fit]
Cc1ccc(S(=O)(=O)N(C)C)cc1NC(=O)COC(=O)c1c(-c2ccccc2)noc1C | inconclusive: 8.28 µM [inhibitor, partial curve, poor fit]
Cc1cc(=O)n2[nH]c(-c3sccc3-n3c(C)ccc3C)cc2n1 | inconclusive: 18.5 µM [inhibitor, single point]
C[C@H](NC(=O)c1cc2c([nH]c3ccccc32)c(-c2ccccc2)n1)C(=O)O | inconclusive: 18.5 µM [inhibitor, single point]
O=C(Nc1nc(-c2cccs2)cs1)c1ccc([N+](=O)[O-])o1 | inconclusive: 16.5 µM [inhibitor, single point]
O=C(NCC(=O)N(CCN1CCOCC1)C(C(=O)NC1CCCC1)c1ccccc1)c1cccs1 (configuration not stated) | inconclusive: 4.15 µM [inhibitor, partial curve]
Cc1ccc(NC(=O)NCCN2C(=O)C3C4C=CC(C4)C3C2=O)cc1 (configuration not stated) | inconclusive: 0.0657 µM [inhibitor, full curve, poor fit]
COCC(=O)Nc1ccc(N2CCCC2)c(S(=O)(=O)Nc2ccccc2OC)c1 | active: 5.22 µM

SMILES | Potency
C=COc1ccc(N2C(=O)c3ccccc3OC2C)cc1 (configuration not stated) | inactive
Cc1cc(C)c(/C([O-])=C(/C(=S)Nc2ccc(SC(F)F)cc2)[n+]2ccccc2)cc1C | inconclusive: 18.5 µM [inhibitor, single point]
CC(=O)c1ccc(N2CCN(C(=O)CCc3ccccc3)CC2)cc1 | inconclusive: 11.7 µM [inhibitor, single point]
COc1ccccc1CNc1ccc2c(c1)CCC2 | inconclusive: 11.7 µM [inhibitor, single point]
COc1cccc(CNC(=O)COC(=O)c2c(C)nn(-c3ccccc3)c2Cl)c1 | inconclusive: 18.5 µM [inhibitor, single point]
COc1ccc(C(=O)/C=C2\Sc3ccccc3N2C)cc1 | inactive
CSc1ccc(C(=O)C2CCCN(C(=O)c3nonc3C)C2)cc1 (configuration not stated) | inactive
Cc1cc(C)nc(N2CCCC(C(=O)NC(C)C)C2)n1 (configuration not stated) | inconclusive: 6.57 µM [inhibitor, partial curve]
COc1cc(OC)nc(NC(C)=O)n1 | inconclusive: 0.0738 µM [inhibitor, full curve, poor fit]
Cc1ccc(O)c(C(=O)c2cnc3c(c2)CN(CCC(C)C)C(=O)N3)c1 | active: 5.22 µM
Cc1nc2cc3ccccc3cc2n1C | inactive
CC(C)(C)OC(=O)N[C@H](C(=O)OC(C)(C)C)c1ccc(C(F)(F)F)cc1 | inconclusive: 16.5 µM [inhibitor, single point]
COc1ccc(OC)c(/C=N/NC(=O)c2csc3ccccc23)c1 | inconclusive: 0.131 µM [inhibitor, full curve, poor fit]
CC(C#N)(NC(=O)CN1CCN(S(=O)(=O)c2cc(C(F)(F)F)ccc2Cl)CC1)C1CC1 (configuration not stated) | inconclusive: 18.5 µM [inhibitor, single point]
CCN(c1ccccc1)S(=O)(=O)c1ccc(OC)c(NC(=O)c2ccccc2OC)c1 | inconclusive: 8.28 µM [inhibitor, partial curve, poor fit]
Cc1cc(=O)oc2cc(OCC(=O)N3CCOCC3)ccc12 | inconclusive: 14.7 µM [inhibitor, partial curve, poor fit]
CCOC(=O)C(C)Sc1nnc(Cn2c(=O)sc3ccccc32)n1-c1ccccc1 (configuration not stated) | inconclusive: 13.1 µM [inhibitor, single point]
O=C(N/N=C/c1c[nH]c2ccccc12)c1cccc([N+](=O)[O-])c1 | inconclusive: 11.7 µM [inhibitor, single point]
CN(C)S(=O)(=O)c1cccc(NC(=S)N/N=C/C(=O)c2ccccc2)c1 | inconclusive: 18.5 µM [inhibitor, single point]
CCCCN1C(N)=NC[C@H]1Cc1ccc(O)cc1 | active: 4.65 µM
O=C(Nc1nnc(C2COc3ccccc3O2)o1)c1ccc(F)cc1 (configuration not stated) | inconclusive: 18.5 µM [inhibitor, single point]
Cc1nc2ccc(-c3nc4ccc(N)cc4[nH]3)cc2[nH]1 | inactive
N#C/C(C(=O)NCc1ccco1)=C1/SC(Cc2ccc(Cl)cc2)C(=O)N1c1ccccc1 (configuration not stated) | inactive

SMILES | Potency
c1csc(C2=Nn3c(nnc3-c3ccncc3)SC2)c1 | inactive
CCn1c(CNC(=O)c2ccco2)nnc1SCC(=O)c1ccc(OC)cc1 | inconclusive: 16.5 µM [inhibitor, partial curve, poor fit]
CCOc1ccc(C(=O)NCC(=O)NCC(c2ccc(OC)cc2)N2CCCC2)cc1 (configuration not stated) | inconclusive: 18.5 µM [inhibitor, single point]
COc1ccc2nc(-n3c(O)c(C4=c5ccccc5=NC4=O)[nH]c3=S)sc2c1 | inconclusive: 2.94 µM [inhibitor, full curve]
COc1cc(N=Nc2cccc(S(N)(=O)=O)c2)c2ccccc2c1N | active: 2.94 µM
COc1ccc(N2CCN(C(=O)[C@@H](NC(=O)c3ccccc3Cl)C(C)C)CC2)cc1 | inconclusive: 18.5 µM [inhibitor, single point]
CCC(C(=O)Nc1ccccc1Cl)n1nc(C)c2c(C)n(-c3ccccc3)nc2c1=O (configuration not stated) | inactive
Cc1cc(C)cc(N(CC(=O)N2CCn3c2nc2ccccc23)S(=O)(=O)c2c(C)noc2C)c1 | inconclusive: 10.4 µM [inhibitor, single point]
COc1cc(C)ccc1OCc1cc(C(=O)N2CCN(C)C[C@@H]2c2ccccc2)no1 | inactive
COc1ccccc1C(=O)C1CCCN(C(=O)Nc2ccccc2F)C1 (configuration not stated) | inconclusive: 10.4 µM [inhibitor, partial curve, poor fit]
N#Cc1cc2ccccc2nc1SCC(=O)Nc1ccc(S(=O)(=O)N2CCCC2)cc1 | inconclusive: 10.4 µM [inhibitor, single point]
O=C(CNS(=O)(=O)c1cccc(F)c1)OCC(=O)N1CCCC1=O | inactive
O=C(c1ccccc1)c1ccc(Cn2cc(-c3ccccc3)nn2)cc1 | inactive
CN(CC(=O)Nc1ccc(Cl)c(C(F)(F)F)c1)C(=O)c1ccc2c(c1)NC(=O)CS2 | inactive
O=C(Nc1ccc2c(c1)OCCO2)c1cc2sccc2n1Cc1ccccc1 | inconclusive: 13.1 µM [inhibitor, single point]
CC1(C)CC(N=Cc2c(O)n(Cc3ccc4c(c3)OCO4)c(=O)c3ccccc23)CC(C)(C)N1 | active: 10.4 µM
COc1cc(NC(=O)c2ccc(N3CC4CC(C3)c3cccc(=O)n3C4)c(NC(=O)c3ccncc3)c2)cc(OC)c1OC (configuration not stated) | inconclusive: 1.85 µM [inhibitor, full curve]
CCCc1nnc(NC(=O)CCC(=O)O)s1 | inconclusive: 14.7 µM [inhibitor, partial curve, poor fit]
Cc1ccc(C)c(N2N=C(C(=O)Nc3ccc(S(=O)(=O)N4CCCC4)cc3)CCC2=O)c1 | inconclusive: 13.1 µM [inhibitor, partial curve, poor fit]
CC(=O)c1cccc(NCC(=O)N2CCN(S(=O)(=O)c3ccccc3)CC2)c1 | inconclusive: 18.5 µM [inhibitor, single point]
